Laboratory results taken from the supplement of paper PMC3334620.
Whole data set: some 33,000 sequences, median “E-score (-0.5 to 0.5)” near -0.016, cut for the highest 2% near 0.3. This is one part of the list.

Each sequence was assayed against T1, Yer184c (UniProt P39961) (assay: PBM E-score (8-mer binding enrichment) (E-score (-0.5 to 0.5)); higher = stronger / more preferred TF binding). Settings: protein concentration: 100 nM; construct: GST-full length.
T1 sequence: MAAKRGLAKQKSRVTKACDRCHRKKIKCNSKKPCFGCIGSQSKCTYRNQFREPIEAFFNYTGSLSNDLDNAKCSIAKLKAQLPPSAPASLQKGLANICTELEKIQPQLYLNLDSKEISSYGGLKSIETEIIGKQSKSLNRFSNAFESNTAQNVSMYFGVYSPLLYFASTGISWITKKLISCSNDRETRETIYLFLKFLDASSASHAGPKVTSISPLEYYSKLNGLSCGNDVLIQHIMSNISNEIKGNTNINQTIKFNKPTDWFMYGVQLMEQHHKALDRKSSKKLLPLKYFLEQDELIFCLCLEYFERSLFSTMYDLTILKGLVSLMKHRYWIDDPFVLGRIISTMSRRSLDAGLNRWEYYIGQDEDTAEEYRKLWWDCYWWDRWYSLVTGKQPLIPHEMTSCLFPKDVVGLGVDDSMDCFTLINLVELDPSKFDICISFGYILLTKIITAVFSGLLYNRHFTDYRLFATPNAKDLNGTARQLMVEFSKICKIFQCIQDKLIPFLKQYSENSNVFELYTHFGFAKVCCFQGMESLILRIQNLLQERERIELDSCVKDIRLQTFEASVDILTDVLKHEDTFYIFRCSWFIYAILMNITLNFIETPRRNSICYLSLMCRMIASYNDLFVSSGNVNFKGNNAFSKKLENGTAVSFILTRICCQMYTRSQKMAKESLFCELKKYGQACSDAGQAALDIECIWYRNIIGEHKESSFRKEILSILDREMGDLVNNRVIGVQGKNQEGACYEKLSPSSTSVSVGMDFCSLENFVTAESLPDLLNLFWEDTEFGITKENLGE
Procedure, shortened: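 Each ungapped eight-base word and its reverse complement, pooled, received an E-score from the Universal PBM Analysis Suite. Underlying scans, normalised with masliner, recorded fluorescent anti-GST bound to GST-tagged yeast transcription factors. These were applied at about 100-200 nM to universal all-10-mer Agilent arrays double-stranded by primer extension.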

Sequence	PBM E-score
CACTATGA	-0.0175
AGGAAATC	0.0763
ACGTTGCG	0.026
CCACAAAA	0.123
TTATCCAA	0.181
GACGGAAC	0.125
AGCAGTGG	-0.14
AGGTCTGA	-0.0793
CTGCGACC	-0.136
AACGCCGA	0.415
ATAGCGGA	0.011
GGACAATA	0.193
CTAGCTTA	-0.0824
AGCGGAAC	0.194
CCTTGCCG	0.124
AGAAAAAT	0.117
ACTCGAGG	-0.0549
GACAGCGC	0.099
AATGATCC	0.104
AGAACAAG	0.143
GTTGTATA	0.12
AAGTAGCT	-0.23
AAGAGGCA	-0.0313
CCAAGCAA	-0.244
AGTTAGAG	-0.0923

Sequence	PBM E-score
CTGTTTCC	0.0995
CACGTGCC	-0.0707
AGAATTGA	0.00876
GTTAGTGA	-0.105
AAAGTCGG	0.0699
ACGTGTGC	-0.345
CGGAAGAC	0.271
CTTTAGCA	-0.0568
GCCTTAAA	0.201
AAGTTGGA	0.0404
ACATGTGG	-0.0584
CGTTAGGA	-0.0109
CGGTTTAA	0.151
ACGCCCAT	-0.096
CACTATTA	0.0652
CATCAGAC	0.0314
CGATATTA	0.343
ACCCATGG	-0.171
CCATGAGG	-0.14
GCAGAAAA	0.132
CTTTCATC	-0.13
TCATACGA	0.0208
CGCGGCCC	0.0857
GAGCTGAC	0.166
CAGATTCA	-0.0469

Sequence	PBM E-score
ACCCTTCC	-0.0895
GTGGTAAA	0.0121
GATTCTGC	0.188
GCGATCGA	0.044
ATCAAACG	0.0842
ACTTCGGC	0.269
ATTGAAAA	0.192
ATCCCGAT	0.091
GCTAATTA	0.0935
ATTACTGC	0.0852
GTAGAGAA	0.00922
AGCTCCCA	-0.135
ACCGTGCA	-0.0733
CCAACTAA	-0.0249
CCAGAATA	0.16
AAAAACTC	0.124
AACATCTA	-0.0976
CCACTTCA	-0.0618
CACGGTCC	-0.123
ACCAACTC	-0.0146
ACGCCAGT	-0.142
AGTCTAAA	-0.0613
CTTATACC	0.0173
CCAGAAAC	0.103
GGGGCCCC	0.0115

Some of the entries above in a different format:

| Sequence | PBM E-score |
| --- | --- |
| CTTTAGCA | -0.0568 |
| GCCTTAAA | 0.201 |
| AAGTTGGA | 0.0404 |
| ACATGTGG | -0.0584 |
| CGTTAGGA | -0.0109 |
| CGGTTTAA | 0.151 |
| ACGCCCAT | -0.096 |
| CACTATTA | 0.0652 |
| CATCAGAC | 0.0314 |
| ACCCATGG | -0.171 |
| CCATGAGG | -0.14 |
| GCAGAAAA | 0.132 |
| CTTTCATC | -0.13 |
| TCATACGA | 0.0208 |
| CGCGGCCC | 0.0857 |
| GAGCTGAC | 0.166 |
| CAGATTCA | -0.0469 |
| ACCCTTCC | -0.0895 |
| GTGGTAAA | 0.0121 |
| GATTCTGC | 0.188 |
| GCGATCGA | 0.044 |
| ATCAAACG | 0.0842 |
| ACTTCGGC | 0.269 |
| ATTGAAAA | 0.192 |
| ATCCCGAT | 0.091 |
| GCTAATTA | 0.0935 |
| GTAGAGAA | 0.00922 |
| AGCTCCCA | -0.135 |
| ACCGTGCA | -0.0733 |
| CCAACTAA | -0.0249 |
| AAAAACTC | 0.124 |
| AACATCTA | -0.0976 |
| CCACTTCA | -0.0618 |
| CACGGTCC | -0.123 |
| ACCAACTC | -0.0146 |
| ACGCCAGT | -0.142 |
| AGTCTAAA | -0.0613 |
| CTTATACC | 0.0173 |
| CCAGAAAC | 0.103 |
| GGGGCCCC | 0.0115 |

(next part)

Sequence	PBM E-score
CTTCCGAC	0.173
GTTTCGTA	0.274
CTTGTGGC	-0.199
ATTATAAT	0.255
CACTTAAC	-0.143
ACCTCCGT	0.107
GTACGTTA	0.0704
ACAATCAG	0.0638
GGGTCTTA	-0.186
CACGGCAC	0.124
CGGGGCGA	0.0911
AGTACGAT	-0.014
CAGTAGGC	-0.075
AACCCAAG	-0.107
CCGCGCGA	0.183
GTTATATA	0.156
TGTACGAA	0.0407
CTCGAGAC	0.0461
ATCAACTC	0.0389
AAGTTGCA	-0.0771
AAGCGGCA	0.201
GAAGCAAA	-0.0663
CACGTCGC	-0.154
GCAGGAGC	-0.282
ATCCACAA	-0.0255

Sequence	PBM E-score
GAGATATA	0.166
ATTCCTTC	0.0508
CTATCGGC	0.0932
CGTTGTGC	-0.0134
AAGGCGAC	-0.169
ACGGCAGT	-0.00033
CAGCTGAC	-0.035
CACACTCG	0.129
CCGCCCGC	0.0679
ATTATTGC	0.211
CCTTGTAA	0.0106
AAGCCTCG	-0.124
GATCAGAC	-0.0162
TAGATTAA	0.183
CCCCTGTA	-0.191
AACAATCC	0.194
CAATCAAA	0.00295
ACACTAAT	0.0395
CGGCTGTC	0.135
CGAGCGTC	-0.145
CCTTCGAA	0.0746
CCCGGCTC	0.281
AGACTCTA	-0.124
ACGAATAC	0.125
AATACGGC	0.291

Sequence	PBM E-score
AGTTGTGA	0.103
GGAAACAA	0.15
CCAAACAA	0.122
ACACCATG	-0.237
AAAATCTT	0.11
AGAGGGAG	-0.248
ACCGGCAC	0.363
ACAGTGAG	-0.251
CTTAGACC	-0.0357
CCTTCCAC	-0.317
AATTACCT	0.0235
CTTAGCTC	0.00985
GGGCATTA	-0.199
GCTCACTA	-0.136
GTCGTTTA	0.0906
CTTCCATA	-0.0174
CAGGAAGG	-0.268
CAGGTAGA	-0.115
ACCCCAGT	-0.219
AGATGATG	-0.0716
GGCCGTTA	0.122
GGGGGGCA	-0.462
TGACCCCA	-0.145
GGCTAGCC	-0.111
AGTTAACG	0.153

Sequence	PBM E-score
ACGGGCTG	-0.045
TCGGTAGA	0.307
CAGTCTAA	0.0414
TAAGCGTA	-0.233
CGCGGTTC	0.123
GAGGCACA	-0.165
AGGAGGCG	-0.285
ACTTGTAC	-0.112
CCTCTTCC	-0.198
GACGAACC	-0.00982
ATGGTAGC	-0.152
AGGGGCTC	-0.341
TACCCTCA	-0.158
GCCCAGTA	-0.14
GTTACAAA	0.251
AAGGTACC	-0.0708
CCAGCGCA	-0.153
CGCTTATC	-0.104
ACCCGTAG	-0.34
ACAACCTC	-0.285
CAGGGGCG	-0.264
ATCGCAAG	-0.03
